In all, about 31,000 sequences went through this assay and about 1,400 (4.5%) were called active.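 The calls were made as follows: active = median seed-adjusted z-score above 1 or below -1; inactive = the rest.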 Some of the results follow.

The values that follow come from PubChem BioAssay AID1347426 (Functional Genomics Laboratory (NCATS/FGL), 2020).

The nature of the assay: Novel Modifiers of Survival Motor Neuron (SMN) Protein: Gene Identification via Genome-wide siRNA Screen.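 Also: luminescence tracks full-length SMN protein made from the SMN2 reporter.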 Particulars: HEK293T SMN2-luciferase reporter, siRNA knockdown, 72 h; actives lie on both sides. In a few lines: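 Genome-wide siRNA screen (10418 genes, 3 siRNAs each, 1 pmol per well) by reverse transfection in HEK293T cells stably carrying an SMN2-luciferase reporter; luminescence after 72 hours, normalized to negative-control siRNA, log10-transformed, MAD-scored.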
A general note: A reporter such as luciferase makes a cellular process visible.
As to GACCGAAGAUUGCCGUUUATT against ZNF295, the median seed-adjusted z-score was inactive: 0.371.
In the case of GGAUGUCGGCAACACGGAATT against MYBPC3, the median seed-adjusted z-score is inactive: 0.304.
Turning to GUGUUGAACCGGUCAGGGATT against VAT1, the median seed-adjusted z-score was inactive: -0.744.
Take GAUGCAUGUUUGUAAAAAUTT against KCNJ6: the median seed-adjusted z-score was active: -1.6.
For the sequence GGAGUUAGCACUAACAUAATT against NUP98, the median seed-adjusted z-score was inactive: 0.168.
In the case of GAGUGGACAUUGUCAUGGATT against VAT1, the median seed-adjusted z-score was inactive: -0.744.
In the case of GGACAUUGCCUAUACCUAUTT against NAALADL1, the median seed-adjusted z-score was inactive: -0.0444.
Regarding GCUUACUAGUUUGAACGGATT against SPATA5, the median seed-adjusted z-score was active: -1.04.
UGGUGAGAAUGUAUUUUGATT against ATAD3A: the median seed-adjusted z-score was inactive: -0.283.
GUGAGAACUUUGACGAUUATT against PMP2: the median seed-adjusted z-score was inactive: 0.00618.
Turning to GAGAUGUACUCAGCCCACATT against MGC29506, the median seed-adjusted z-score was inactive: 0.
On to CGACAAUCUAACUUCCGUATT against CYTH3, for which the median seed-adjusted z-score was inactive: 0.196.
For CCUUCUUCUGGAUACCGAUTT against ABCA9, the median seed-adjusted z-score was inactive: -0.139.
The result for GGUUCACUAUAGUUGCGGATT against STAT1 reads inactive: -0.0526; that for GAAACGCAAACGACAGAAATT against PHAX, inactive: -0.0716.
AGCCUUUCCUGGUAGUCAATT against KRT86: the median seed-adjusted z-score is inactive: -0.689.
With GGUGAUCGGUAGCAACAAATT against PARP1, the median seed-adjusted z-score was inactive: -0.0913.
With CCGUAUAAAUGUACCCUUUTT against ZNF263, the median seed-adjusted z-score was inactive: 0.397.
For AAAUCUUACUGACCAUAAATT against ZNF117, the median seed-adjusted z-score was inactive: 0.616.
As to GCAAAGGGAUCGGAAGAGATT against HSD11B1, the median seed-adjusted z-score is inactive: -0.174.
The figure for ACAAUUUCGUGCAUCGAGATT against CSK is inactive: 0.993; for GCCUUGUGGAUGAUCGUGUTT against GRIK4 it is inactive: 0.249.
The figure for CCCUGGACGCUGAUGAGUUTT against CAPS is active: -1.25; for GAGGUUCCCUAAUUUCCAATT against HIF1AN it is inactive: -0.0315.
As to UCAUAAUUAUCUCACCAGATT against MEOX2, the median seed-adjusted z-score was active: 1.36.
The result for GGGUAUAAAACAUUAUGAATT against ZNF510 reads inactive: 0.28.
With GGGACAACGUGAGAACAAUTT against B4GALT5, the median seed-adjusted z-score was inactive: 0.104.
The result for GAUGUUCCCUAUAUGCAAATT against CLDN10 reads inactive: 0.0399; that for GCCCAUCAGGGUUCUCUUATT against CD82, inactive: 0.102; that for GGCUUUGCUUAAGUUCAAATT against LPCAT4, inactive: 0.338.
